Data set [1] in a line: Stability in rat plasma (hydrolysis by plasma esterases). Type of data set: in vitro ADME. The procedure:
(§1) Such study is conducted with the aim of evaluating possible hydrolysis of the compound (IV) by the plasma esterases. The percentage of hydrolysis of the compound (IV) is compared to that of known reference standards.

Data set [2] is described as follows: Stability in human plasma (hydrolysis by plasma esterases). Type of data set: in vitro ADME. Here is the method:
as §1

Molecules are shown by their SMILES.

For `CCN(CC)CC(=O)Nc1c(C)cccc1C` [Lidocaine, reference compound], the “% Residue at 60 min” value in data set [1] came to 93.4 ± 4.9%; in data set [2], 105.0 ± 12.1%.

For the origin of these results see patent publication US9193673B2, “Derivatives of mesalazine, process of their preparation and their use in the treatment of intestinal inflammatory diseases” (SOFAR SPA, priority 2010, dated 2015).
